In publication PMC9223267, “Serine hydroxymethyltransferase as a potential target of antibacterial agents acting synergistically with one-carbon metabolism-related inhibitors” (Communications Biology, 2022):
“Also recorded” adds a separate entry of the source.

Chains of the proteins cited; added tags and fusions are not shown.
UniProt I3U4H4, whole entry M1V: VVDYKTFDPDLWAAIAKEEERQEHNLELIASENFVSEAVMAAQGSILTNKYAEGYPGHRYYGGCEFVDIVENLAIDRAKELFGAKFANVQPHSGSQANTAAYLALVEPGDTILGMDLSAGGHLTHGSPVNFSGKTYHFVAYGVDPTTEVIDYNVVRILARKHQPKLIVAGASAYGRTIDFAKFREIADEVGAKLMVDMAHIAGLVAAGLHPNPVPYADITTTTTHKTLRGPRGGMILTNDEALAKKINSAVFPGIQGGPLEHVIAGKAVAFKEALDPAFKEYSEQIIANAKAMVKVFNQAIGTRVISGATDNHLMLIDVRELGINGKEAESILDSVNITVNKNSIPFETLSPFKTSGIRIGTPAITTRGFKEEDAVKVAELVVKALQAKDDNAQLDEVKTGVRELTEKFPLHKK

Columns and labels:
[1] = target: efmSHMT (Enterococcus faecium, UniProt I3U4H4, M1V); assay type: binding; settings: 5 μM efmSHMT; 10 mM Gly and 100 μM Ser; Cheng-Prusoff
Experimental: After adding Me-THF, the efmSHMT solution was incubated for 30 min at room temperature. The optical density at 500 and 600 nm (OD500 and OD600) were then measured using a nanodrop spectrophotometer[24],[25]. OD600 was used as the background. After detection, each concentration of inhibitor was added to the efmSHMT solution and incubated for 30 min at room temperature. OD500 and OD600 were measured. The relative OD500 intensity was calculated as relative OD500 = (OD500 – OD600)/(MAXOD500 – OD600), where MAXOD500 is the average OD500 value in the presence of 1000, 2000 and 4000 μM Me-THF without inhibitors. […] Here, IC50 is the concentration of inhibitor added to the efmSHMT solution and [Me-THF] is the EC50 in the presence of the inhibitor concentration. [EC50 without inhibitor] is the EC50 of Me-THF in the absence of the inhibitor.

[2] = system: E. faecium; test: Bacterial viability assay (Microbial Viability Assay Kit-WST, OD450); assay type: cell-based; settings: Enterococcus faecium, relative bacterial viability after 14 h incubation
Experimental: Living E. faecium were determined using the Microbial Viability Assay Kit-WST (DOJINDO, Tokyo, Japan). Briefly, E. faecium were grown overnight at 37 °C on Nissui Plate Sheep Blood Agar. […] Positive control wells included bacteria seeded into MH broth without compounds, and the negative control wells contained MH broth only. […] Five microlitres of the colouring reagent were added to each well of the 96-well plate every 2 h after starting incubation with each compound. The absorbance at 450 nm (OD450) was measured 1 h after adding the colouring reagent using the GloMax microtiter plate reader (Promega, Tokyo, Japan).

In the case of CN[C@H]1CC[C@@H](c2ccc(Cl)c(Cl)c2)c2ccccc21 [SER, sertraline], the Ki [1] is reported as “did not change the OD500; also recorded: did not bind” and the EC50 [2] is reported as 13 µM.
